# Laboratory results reported in patent US20150376286A1.
# Protein sequences, listed by entry. Tags and fused reporters are not part of them. Lines headed by an entry give the natural chain unless they say otherwise; changes in a name come on top.
# UniProt Q16602: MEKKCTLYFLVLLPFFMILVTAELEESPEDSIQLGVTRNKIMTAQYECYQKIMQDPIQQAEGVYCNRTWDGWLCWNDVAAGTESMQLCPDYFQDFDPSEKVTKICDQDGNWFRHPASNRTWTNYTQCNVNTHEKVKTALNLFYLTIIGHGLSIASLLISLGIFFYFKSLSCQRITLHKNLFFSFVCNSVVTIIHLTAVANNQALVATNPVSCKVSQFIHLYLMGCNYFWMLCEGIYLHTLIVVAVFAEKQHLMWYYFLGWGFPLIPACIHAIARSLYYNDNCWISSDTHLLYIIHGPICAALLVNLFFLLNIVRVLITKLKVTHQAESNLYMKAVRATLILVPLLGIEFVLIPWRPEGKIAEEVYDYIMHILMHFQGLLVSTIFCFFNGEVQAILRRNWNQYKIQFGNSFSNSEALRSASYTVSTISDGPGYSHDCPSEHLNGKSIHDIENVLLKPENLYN
# These are yes or no findings as the source states them, for the method shown. Some entries that bind do so weakly or less than the wild type.
# Molecular target: human CGRP receptor (CRLR + RAMP1) (human) (UniProt Q16602)
# Assay: FACS staining of transfected cells
binder,measurement,value
"WVTHRLAGLLSRSGGVVRCNFVPTDVGPFAF (N-terminal acetyl (Ac-), C-terminal amide (-NH2), Alexa 647 label) [Alexa 647-labeled CGRP8-37 peptide analog]",binding,binds
